Results reported in the supplement of paper PMC12462457.
Counter-ions that a name gives are not always drawn. ± gives the standard deviation of the averaged measurements. This is one part of the list. This data set is noisy: repeats of one test often differ as much as different tests do.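 Cell counts came from imaging DAPI-stained nuclei, excluding as dead any cells lacking phalloidin-stained cytoplasm. Counts per well were normalized to the median vehicle-well count on that plate, and the values were averaged over two replicate plates.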

Tested on: OVCAR8
Experiment: cell count relative to DMSO vehicle (fold change); higher = more surviving senescent cells (less killing)
Settings: senescence inducer: cisplatin 10 µM 48 h, then 6 d recovery (CP senescent), exposure time 24 h

SMILES | cell count (compound dose 1 µM) | cell count (compound dose 5 µM)
COc1ccc(-c2ccc3c(N4CCOC[C@@H]4C)nc(N4CCOC[C@@H]4C)nc3n2)cc1CO | 0.727 ± 0.033 | 0.428 ± 0.033
CN1CCN(C(=O)/C=C/c2ccc([N+](=O)[O-])o2)CC1 | 0.887 ± 0.022 | 0.838 ± 0.019
CC(=O)Nc1ccc(C(=O)Nc2ccccc2N)cc1 [Tacedinaline (CI994)] | 0.875 ± 0.013 | 0.794 ± 0.081
COc1cc2c(Nc3ccc(NC(=O)c4ccccc4)cc3)ncnc2cc1OCCCN1CCOCC1 | 1.11 ± 0.12 | 1.2 ± 0.11
O=S(=O)(c1ccc2c(c1)C(=NO)c1cc(S(=O)(=O)N3CCCCC3)ccc1-2)N1CCCCC1 | 0.124 ± 0.064 | 0.185 ± 0.052
CNC(=O)COc1cc2cc(Nc3nc(N4C[C@H](C)C[C@H](C)C4)ncc3Cl)ccc2n(C)c1=O | 0.854 ± 0.03 | 0.647 ± 0.3
CC1(C)CC[C@]2(C(=O)O)CC[C@]3(C)C(=CC[C@@H]4[C@@]5(C)CC[C@H](O[C@@H]6O[C@H](C(=O)O)[C@@H](O)[C@H](O[C@@H]7OC[C@@H](O)[C@H](O)[C@H]7O)[C@H]6O)C(C)(C)[C@@H]5CC[C@]43C)[C@@H]2C1 [Momordin Ic] | 0.988 ± 0.043 | 0.908 ± 0.26
OCCN1CCN(CC/C=C2/c3ccccc3Sc3ccc(C(F)(F)F)cc32)CC1 [Flupentixol dihydrochloride] | 1.11 | 1.211 ± 0.0071
CC(=O)Nc1cccc(-n2c(=O)n(C3CC3)c(=O)c3c(Nc4ccc(I)cc4F)n(C)c(=O)c(C)c32)c1 | 1.07 ± 0.082 | 0.809 ± 0.033
CC(C)c1c(C(=O)Nc2ccccc2)c(-c2ccccc2)c(-c2ccc(F)cc2)n1CC[C@@H](O)C[C@@H](O)CC(=O)O [Atorvastatin (hemicalcium salt)] | 1.01 ± 0.016 | 0.733 ± 0.017
Cc1ncc(C[n+]2csc(CCO)c2C)c(N)n1 | 1.24 ± 0.36 | 0.54 ± 0.28
CC(C)(C)c1cnc(CSc2cnc(NC(=O)C3CCNCC3)s2)o1 | 1.315 ± 0.0092 | 0.868 ± 0.059
COc1ccc(-c2cc(=O)c3c(O)c(OC)c(OC)cc3o2)cc1O [Eupatorin] | 1.03 ± 0.07 | 0.703 ± 0.33
CC(=Cc1ccc(C(=O)O)cc1)c1ccc2c(c1)C(C)(C)CCC2(C)C | 1.13 ± 0.031 | 0.834 ± 0.19
COC(=O)Nc1nc2cc(C(=O)c3cccs3)ccc2[nH]1 [Nocodazole] | 0.853 ± 0.21 | 0.755 ± 0.047
COc1cc(-c2ccc(=O)[nH]n2)ccc1OC(F)F [Zardaverine] | 0.962 ± 0.13 | 0.729 ± 0.0092
Cc1ccc([N+](=O)[O-])cc1S(=O)(=O)N(C)/N=C/c1cnc2ccc(Br)cn12 [PIK-75 (hydrochloride)] | 0.815 ± 0.081 | 0.521 ± 0.23
CCCCCCCc1ccc(CCc2cccc(O)c2C(=O)O)cc1 | 0.777 ± 0.047 | 0.917 ± 0.082
CC(C)(C)S(=O)(=O)c1ccc2nccc(Nc3n[nH]c4ccc(F)cc34)c2c1 | 0.756 ± 0.028 | 0.812 ± 0.05
COc1cc(OC)c(/C=C/S(=O)(=O)Cc2ccc(OC)c(NCC(=O)O)c2)c(OC)c1 [Rigosertib (sodium)] | 0.536 ± 0.018 | 0.572 ± 0.067
Nc1nc(OCc2ccccc2)c2nc[nH]c2n1 [O6-Benzylguanine] | 0.795 ± 0.079 | 0.749 ± 0.14
CN(Cc1cnc2nc(N)nc(N)c2n1)c1ccc(C(=O)N[C@@H](CCC(=O)O)C(=O)O)cc1 [Methotrexate] | 1.12 ± 0.1 | 0.812 ± 0.026
CN(Cc1cnc2nc(N)nc(N)c2n1)c1ccc(C(=O)N[C@@H](CCC(=O)O)C(=O)O)cc1 [Methotrexate (disodium)] | 1.21 ± 0.016 | 0.95 ± 0.3

Some of the entries above in a different format.
COc1cc2c(Nc3ccc(NC(=O)c4ccccc4)cc3)ncnc2cc1OCCCN1CCOCC1
  cell count (compound dose 1 µM): 1.11 ± 0.12
  cell count (compound dose 5 µM): 1.2 ± 0.11
O=S(=O)(c1ccc2c(c1)C(=NO)c1cc(S(=O)(=O)N3CCCCC3)ccc1-2)N1CCCCC1
  cell count (compound dose 1 µM): 0.124 ± 0.064
  cell count (compound dose 5 µM): 0.185 ± 0.052
CNC(=O)COc1cc2cc(Nc3nc(N4C[C@H](C)C[C@H](C)C4)ncc3Cl)ccc2n(C)c1=O
  cell count (compound dose 1 µM): 0.854 ± 0.03
  cell count (compound dose 5 µM): 0.647 ± 0.3
CC1(C)CC[C@]2(C(=O)O)CC[C@]3(C)C(=CC[C@@H]4[C@@]5(C)CC[C@H](O[C@@H]6O[C@H](C(=O)O)[C@@H](O)[C@H](O[C@@H]7OC[C@@H](O)[C@H](O)[C@H]7O)[C@H]6O)C(C)(C)[C@@H]5CC[C@]43C)[C@@H]2C1 [Momordin Ic]
  cell count (compound dose 1 µM): 0.988 ± 0.043
  cell count (compound dose 5 µM): 0.908 ± 0.26

Next part.

SMILES | cell count (compound dose 1 µM) | cell count (compound dose 5 µM)
CCCC[C@@H](C=O)NC(=O)[C@H](CC(C)C)NC(=O)[C@H](CC(C)C)NC(C)=O | 1.09 ± 0.065 | 1.01 ± 0.12
Nc1nc(NC2CC2)c2ncn([C@H]3C=C[C@@H](CO)C3)c2n1 [Abacavir] | 0.861 ± 0.065 | 0.481 ± 0.0092
Nc1nc(NC2CC2)c2ncn([C@H]3C=C[C@@H](CO)C3)c2n1 | 1.13 ± 0.17 | 1.25 ± 0.085
COc1cc(C(C)=O)ccc1O [Apocynin] | 1.14 ± 0.018 | 1.3 ± 0.11
COc1cc(C=CC(=O)O)cc(OC)c1O | 0.76 ± 0.054 | 0.601 ± 0.2
O=C(/C=C/c1ccc(O)c(O)c1)O[C@@H]1[C@H](O)C[C@@](O)(C(=O)O)C[C@H]1OC(=O)/C=C/c1ccc(O)c(O)c1 [4,5-Dicaffeoylquinic acid] | 1.09 ± 0.17 | 1.09 ± 0.082
COC(=O)c1ccc([C@H]2c3[nH]c4ccccc4c3C[C@H](C(=O)OC)N2C(=O)CCl)cc1 | 0.0395 ± 0.0035 | 0.0305 ± 0.0078
CCCCCCCCCCCCc1ccc(S(=O)(=O)Nc2nncs2)cc1 | 1.14 ± 0.052 | 0.871 ± 0.062
C[C@H]1[C@H](C)CC[C@]2(C(=O)O)CC[C@]3(C)C(=CC[C@@H]4[C@@]5(C)C[C@@H](O)[C@H](O)[C@@](C)(CO)[C@@H]5CC[C@]43C)[C@H]12 [Asiatic acid] | 1.06 ± 0.18 | 0.814 ± 0.16
CNCCN(C)Cc1c[nH]nc1-c1ccc(O[C@H]2C[C@H](OCCC3CCOCC3)C2)cc1 | 1.17 ± 0.046 | 0.857 ± 0.0057
CN(C)CC#Cc1ccc(OCCCc2sc(N3CCc4cccc(C(=O)Nc5nc6ccccc6s5)c4C3)nc2C(=O)O)c(F)c1 | 0.736 ± 0.097 | 0.585 ± 0.14
C=C(C)[C@@H](CC=C(C)C)C[C@@]12C[C@@H](CC=C(C)C)C(C)(C)[C@@](CC=C(C)C)(C(=O)C(C(=O)c3ccc(O)c(O)c3)=C1O)C2=O [Garcinol] | 0.9 ± 0.093 | 0.594 ± 0.31
COc1ccc(C[C@@H]2c3cc(Oc4cc(C[C@@H]5c6cc(OC)c(OC)cc6CCN5C)ccc4O)c(OC)cc3CCN2C)cc1 [Neferine] | 1.25 ± 0.33 | 1.25 ± 0.064
CC1(C)C(=O)N([C@H]2CCc3c(O)cccc32)c2nc(Nc3cccc(CN4CCCC4)c3)ncc21 | 1.11 ± 0.074 | 0.409 ± 0.14
Cc1[nH]c2ccccc2c1CCNCc1ccc(/C=C/C(=O)NO)cc1 [Panobinostat (LBH589)] | 0.288 ± 0.055 | 0.232 ± 0.018
COc1ccnc(C[S+]([O-])c2nc3cc(OC(F)F)ccc3[nH]2)c1OC (centres undefined) [Pantoprazole (sodium)] | 1.01 ± 0.14 | 0.651 ± 0.013
COc1ccnc(C[S+]([O-])c2nc3cc(OC(F)F)ccc3[nH]2)c1OC (centres undefined) [Pantoprazole (sodium hydrate)] | 1.051 ± 0.0042 | 1.24 ± 0.11
Nc1ccn([C@@H]2O[C@H](CO)[C@@H](O)[C@@H]2O)c(=O)n1 [Cytarabine] | 1.15 ± 0.32 | 1.25 ± 0.24
COc1ccc(-c2coc3cc(O)ccc3c2=O)cc1O [Calycosin] | 1.09 ± 0.12 | 0.779 ± 0.18
Cc1cc(Nc2nc(N[C@@H](C)c3ccc(F)cc3)c(C#N)cc2F)n[nH]1 | 1.04 ± 0.15 | 0.767 ± 0.24
CC(C)c1ccc2c(c1)c(SC(C)(C)C)c(CC(C)(C)C(=O)O)n2Cc1ccc(Cl)cc1 | 1.36 ± 0.15 | 0.92 ± 0.25
N[C@@H](CCC(=O)Nc1ccc([N+](=O)[O-])cc1)C(=O)O [GPNA (hydrochloride)] | 1.0485 ± 0.00071 | 1.2 ± 0.033
CCN1CCN(Cc2ccc(-c3cc4c(N[C@H](C)c5ccccc5)ncnc4[nH]3)cc2)CC1 | 0.966 ± 0.048 | 0.848 ± 0.025

SMILES | cell count (compound dose 1 µM) | cell count (compound dose 5 µM)
Cc1nc(Nc2ncc(C(=O)Nc3c(C)cccc3Cl)s2)cc(N2CCN(CCO)CC2)n1 [Dasatinib] | 0.0915 ± 0.012 | 0.077 ± 0.018
COc1cc(N2CCC(N3CCN(C)CC3)CC2)ccc1Nc1ncnc(Nc2ccccc2S(=O)(=O)C(C)C)n1 | 1.1 ± 0.28 | 0.522 ± 0.17
CN1C(=O)[C@@H](NC(=O)c2n[nH]c(Cc3ccccc3)n2)COc2ccccc21 | 1.097 ± 0.0057 | 1.15 ± 0.09
Cc1cc(=O)oc2c(O)c(O)ccc12 | 0.952 ± 0.14 | 0.764 ± 0.2
CC(C)(C)c1ccc(C(O)CCCN2CCC(C(O)(c3ccccc3)c3ccccc3)CC2)cc1 (centres undefined) | 0.943 ± 0.0099 | 0.483 ± 0.35
CC(C)(c1ccc(OCC(O)CO)cc1)c1ccc(OCC(O)CCl)cc1 (centres undefined) | 1.11 ± 0.23 | 0.887 ± 0.43
CCOC(=O)c1[nH]c2cc(Cl)ccc2c1C(C(=O)NC(C)(C)C)N(C=O)Cc1ccc(Cl)cc1 (centres undefined) | 1.05 ± 0.097 | 1.16 ± 0.069
CCc1c(Cl)c(O)c(Cl)c(O)c1C(=O)O[C@H]1[C@H](O)[C@H](OC)[C@H](OC/C2=C\C=C\C[C@H](O)/C(C)=C/[C@H](CC)[C@@H](O[C@@H]3OC(C)(C)[C@@H](OC(=O)C(C)C)[C@H](O)[C@@H]3O)/C(C)=C/C(C)=C/C[C@@H]([C@@H](C)O)OC2=O)O[C@@H]1C [Fidaxomicin] | 1.23 ± 0.087 | 1.03 ± 0.18
O=C1NCCCc2c1oc1ccc(O)cc21 | 1.24 ± 0.081 | 1.14 ± 0.26
COc1cc(-c2cc(=O)c3c(O)c(OC)c(O)cc3o2)ccc1O [Jaceosidin] | 0.901 ± 0.1 | 0.69 ± 0.051
CCCOc1ccc(S(=O)(=O)N2CCN(CCO)CC2)cc1-c1nc2c(CCC)cn(CC)c2c(=O)[nH]1 [Mirodenafil (dihydrochloride)] | 1.11 ± 0.025 | 1.22 ± 0.12
N#Cc1c(NC(=O)c2cccc3ccccc23)sc2c1CCCC2 | 0.833 ± 0.034 | 0.877 ± 0.11
CC(C)C(C)C(O)C(O)C(C)C1CCC2C3COC(=O)C4CC(O)C(O)CC4(C)C3CCC12C (centres undefined) [Brassinolide] | 1.08 ± 0.1 | 1.18 ± 0.24
CCN(CC)CCCC(C)Nc1nc(C)cc(Nc2ccc3nc(C)cc(N)c3c2)n1 (centres undefined) | 1.07 ± 0.19 | 0.865 ± 0.019
C#CCC(Cc1cnc2nc(N)nc(N)c2n1)c1ccc(C(=O)N[C@@H](CCC(=O)O)C(=O)O)cc1 (some centres undefined) [Pralatrexate] | 0.864 ± 0.23 | 0.956 ± 0.12
C=C(C)[C@@H]1CC[C@]2(C(=O)OCC(N)(CO)CO)CC[C@]3(C)[C@H](CC[C@@H]4[C@@]5(C)CC[C@H](OC(C)=O)C(C)(C)[C@@H]5CC[C@]43C)[C@@H]12 | 1.08 ± 0.15 | 0.324 ± 0.064
Nc1cccc(Nc2ncc(-c3ccc(Cl)cc3)o2)c1 | 1.529 ± 0.011 | 1.68 ± 0.23
Cc1ccc2nc(N)[nH]c(=O)c2c1Sc1ccncc1 [Nolatrexed dihydrochloride] | 0.964 ± 0.025 | 1.1 ± 0.17
C=C[C@]1(C)CC[C@@H](C(=C)C)C[C@H]1C(=C)C [β-Elemene] | 1.17 ± 0.2 | 1.17 ± 0.24
C=C(C)[C@@H]1CC=C(CO)CC1 [(S)-(-)-Perillyl alcohol] | 1.05 ± 0.17 | 0.826 ± 0.062
NS(=O)(=O)c1ccc(-n2nc(C(F)(F)F)cc2-c2ccc(Cl)cc2)cc1 | 1.26 ± 0.064 | 1.15 ± 0.042
